Test results from the supplement of paper PMC5949888.
± gives the standard deviation of the averaged measurements. Most values lie at the floor of the assay. Slopes are relative: functional sequences can read slightly below zero.

The substances below were run on Saccharomyces cerevisiae PS128 hsf1 delta, HSF1(1-493) fusion (assay: growth estimate (transactivation domain function in HSF1 fusion, heat-shock survival) (a.u. (slope of normalised read count over time)); higher = stronger growth at 37°C, i.e. more transactivation activity). Conditions: library: random library.

| Substance | growth estimate |
| --- | --- |
| PSLLRLPSKRPCSKLGVTVR | < -0.25 |
| PSLPVAPLNDTFLIMFYCRG | < -0.25 |
| PSLVCIQGM | < -0.25 |
| PSLYRGTTPGHFEATTTGRY | < -0.25 |
| PSM | < -0.25 |
| PSNG | < -0.25 |
| PSPFEYVVL | < -0.25 |
| PSQFAA | < -0.25 |
| PSQGNLATGVANDGSAPRGH | < -0.25 |
| PSRGAAHGAGHDCRPRRLKG | < -0.25 |
| PSRHLEQLGI | < -0.25 |
| PSRWKCVHLRAGSQGSKTTH | < -0.25 |
| PSRYRKSNSVECQLTQEGWT | < -0.25 |
| PSSDRGGRNLSNI | < -0.25 |
| PSSII | -0.248 |
| PSSIPSHTTVAGIAPARQR | < -0.25 |
| PSSQTVTPVHIIG | < -0.25 |
| PST | < -0.25 |
| PSTPGRGRVTEEI | < -0.25 |
| PSTQSCGYLKREDIRLSMPW | < -0.25 |
| PSVLLPDGATY | -0.192 |
| PSYARQSS | < -0.25 |
| PTA | -0.0849 ± 0.23 |
| PTAHRFGPAVGSHATVHSVV | < -0.25 |
| PTATSVRQCTTSWEGSVFGP | < -0.25 |
| PTAVGSRYIHFLSQFF | < -0.25 |
| PTDPRFADGTFTTIVPRGKP | -0.243 |

| Substance | growth estimate |
| --- | --- |
| PTECSWTALRHNYPCQKLFR | < -0.25 |
| PTFGFRAIEEECK | < -0.25 |
| PTGGHRCGPPCASRMHNGGH | < -0.25 |
| PTGLKCSFSGFFYHAAFPNR | < -0.25 |
| PTHIEAVATLPSPCSPCGQR | < -0.25 |
| PTILIGSGRVTGRMLRAIWW | < -0.25 |
| PTINGPFGRHAQDPSYGAST | < -0.25 |
| PTKQGVWCE | < -0.25 |
| PTKRAERPEPSNLLALAGGT | < -0.25 |
| PTKVCFRRR | < -0.25 |
| PTLNLIFSRPCLPVGD | < -0.25 |
| PTLPRQPSTMHARVPRVVCD | < -0.25 |
| PTMVFLVQPSVDYSRSTRSC | < -0.25 |
| PTPGLLVT | < -0.25 |
| PTPGSKYRAIAISG | < -0.25 |
| PTQRDSAIGLALYRVTSRLD | < -0.25 |
| PTRCGPGALVSTRRLVA | < -0.25 |
| PTRRKSRLVSTKLRLKFSYR | < -0.25 |
| PTRRSSVLQIVCGHVFFRVA | < -0.25 |
| PTRRTEVRVPRGAA | < -0.25 |
| PTSCHLYTWGVSRAPRVGTW | < -0.25 |
| PTSCRRPGPKSRRAQL | < -0.25 |
| PTSG | < -0.25 |
| PTTKRGGQ | < -0.25 |
| PTTTSQENKARHHRYEAPYE | < -0.25 |
| PTVLSSSALCAISTNVWFEF | < -0.25 |
| PTWYNPQYVV | < -0.25 |

| Substance | growth estimate |
| --- | --- |
| PVAEDDRQDGQISA | < -0.25 |
| PVAGPRSVASGGC | < -0.25 |
| PVCASDAIGSYSGIRHRFWS | < -0.25 |
| PVCMMAMSAVGGDHTDPFTI | < -0.25 |
| PVCQLRLICQLCVSPQRPEF | < -0.25 |
| PVCSWDITPTKAVGGG | < -0.25 |
| PVEPIFCVNDLHQGPEASEA | < -0.25 |
| PVFAGSCRVAV | < -0.25 |
| PVGHCFLLELTVEKIGPSHV | < -0.25 |
| PVGIIFRNITQLSVYSQGMT | < -0.25 |
| PVGLIVRLA | < -0.25 |
| PVGLRTGLRILYSPAWQPAN | < -0.25 |
| PVGQMHRILTSGPGCLYAVS | < -0.25 |
| PVGYFIHRVTFLARARWFRP | < -0.25 |
| PVIILVQAGIIWPNLHDEV | < -0.25 |
| PVK | < -0.25 |
| PVKYCRPTRDTQKFEPR | < -0.25 |
| PVLLHRAPIE | < -0.25 |
| PVNFPGLRLFSPEDSGNAPL | < -0.25 |
| PVNKNANYLSAIVGP | < -0.25 |
| PVP | < -0.25 |
| PVQLQILSRVNTYPPACICC | < -0.25 |
| PVRENA | < -0.25 |
| PVRGLSY | < -0.25 |
| PVRILCY | < -0.25 |
| PVRLSWTGMISKRKL | < -0.25 |

A few values from the results shown:
Under growth estimate, PVCASDAIGSYSGIRHRFWS reads < -0.25
Under growth estimate, PVCQLRLICQLCVSPQRPEF reads < -0.25
Under growth estimate, PVCSWDITPTKAVGGG reads < -0.25
Under growth estimate, PVP reads < -0.25
